Some of the results follow.
Key:
Assay in all cases: log2 fold change, soluble protein after heating vs DMSO (PISA); higher = thermal stabilisation; K562 lysate, 10 uM; active = over 0.2 and 3.5 SD of the protein, either way, in both replicates (recomputed)
lapatinib = compound: CS(=O)(=O)CCNCc1ccc(-c2ccc3ncnc(Nc4ccc(OCc5cccc(F)c5)c(Cl)c4)c3c2)o1 [lapatinib]
Outline: (§1)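 To prepare the extract, K562 pellets were dounce-homogenised in PBS pH 7.4 with 1 mM MgCl2, giving crude material at 1 mg/mL protein. This was treated with 10 μM compound for 30 min, then heated in aliquots for 3 min over 48°C-58°C before pooling and addition of NP-40 to 0.5% at 4°C. Centrifugation at 21,000xg for 90 min left soluble protein in the supernatant, which TMTpro 16plex LC-MS/MS quantified with equalised channel sums. Results are log-two fold changes in thermal stability compared with solvent controls, from duplicates.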

Sequences of proteins named here, by UniProt entry; tags and fusion partners are left off. A change or cut given only in a name is not applied to a line headed by its entry.
UniProt Q9BUR5: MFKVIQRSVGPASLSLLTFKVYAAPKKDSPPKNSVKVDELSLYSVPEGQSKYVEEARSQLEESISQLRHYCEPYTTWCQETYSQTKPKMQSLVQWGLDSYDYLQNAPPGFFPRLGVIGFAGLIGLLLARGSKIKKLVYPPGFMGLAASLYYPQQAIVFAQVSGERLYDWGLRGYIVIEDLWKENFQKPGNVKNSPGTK
UniProt P62330: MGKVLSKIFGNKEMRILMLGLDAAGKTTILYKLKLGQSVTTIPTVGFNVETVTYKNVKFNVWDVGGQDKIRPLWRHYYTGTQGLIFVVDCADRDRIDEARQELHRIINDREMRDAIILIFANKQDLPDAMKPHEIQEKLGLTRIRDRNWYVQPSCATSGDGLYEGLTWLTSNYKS
UniProt Q6P1M9: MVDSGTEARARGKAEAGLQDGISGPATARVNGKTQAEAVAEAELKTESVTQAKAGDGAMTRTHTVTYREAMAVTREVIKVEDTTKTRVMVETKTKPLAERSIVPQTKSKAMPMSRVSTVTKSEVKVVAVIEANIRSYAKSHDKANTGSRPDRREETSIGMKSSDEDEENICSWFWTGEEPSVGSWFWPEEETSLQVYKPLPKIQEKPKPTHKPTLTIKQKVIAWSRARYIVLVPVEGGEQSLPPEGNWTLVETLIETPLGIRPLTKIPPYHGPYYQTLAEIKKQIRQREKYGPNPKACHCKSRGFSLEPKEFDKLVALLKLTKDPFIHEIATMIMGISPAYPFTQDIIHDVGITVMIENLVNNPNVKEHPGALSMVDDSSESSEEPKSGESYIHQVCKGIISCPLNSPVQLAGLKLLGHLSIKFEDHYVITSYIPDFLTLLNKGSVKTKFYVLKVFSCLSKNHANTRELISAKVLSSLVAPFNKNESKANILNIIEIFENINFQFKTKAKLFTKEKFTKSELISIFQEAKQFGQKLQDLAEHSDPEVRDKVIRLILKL
UniProt O96018: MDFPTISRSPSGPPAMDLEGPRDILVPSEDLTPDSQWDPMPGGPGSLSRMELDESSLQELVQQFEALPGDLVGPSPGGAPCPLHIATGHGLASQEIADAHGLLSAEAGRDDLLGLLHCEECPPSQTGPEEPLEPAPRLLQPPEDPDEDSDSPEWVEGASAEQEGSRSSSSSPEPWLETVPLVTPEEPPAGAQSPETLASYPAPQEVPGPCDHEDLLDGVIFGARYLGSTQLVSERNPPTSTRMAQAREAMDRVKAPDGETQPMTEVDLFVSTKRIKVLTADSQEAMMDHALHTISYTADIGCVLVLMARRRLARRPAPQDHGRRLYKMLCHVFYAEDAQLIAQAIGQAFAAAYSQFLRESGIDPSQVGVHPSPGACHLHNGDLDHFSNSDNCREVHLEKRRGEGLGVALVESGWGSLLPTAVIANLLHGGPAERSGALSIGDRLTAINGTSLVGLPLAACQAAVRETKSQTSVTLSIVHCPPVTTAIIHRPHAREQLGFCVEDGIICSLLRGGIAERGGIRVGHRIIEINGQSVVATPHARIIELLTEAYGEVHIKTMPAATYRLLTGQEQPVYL
UniProt Q8IW19: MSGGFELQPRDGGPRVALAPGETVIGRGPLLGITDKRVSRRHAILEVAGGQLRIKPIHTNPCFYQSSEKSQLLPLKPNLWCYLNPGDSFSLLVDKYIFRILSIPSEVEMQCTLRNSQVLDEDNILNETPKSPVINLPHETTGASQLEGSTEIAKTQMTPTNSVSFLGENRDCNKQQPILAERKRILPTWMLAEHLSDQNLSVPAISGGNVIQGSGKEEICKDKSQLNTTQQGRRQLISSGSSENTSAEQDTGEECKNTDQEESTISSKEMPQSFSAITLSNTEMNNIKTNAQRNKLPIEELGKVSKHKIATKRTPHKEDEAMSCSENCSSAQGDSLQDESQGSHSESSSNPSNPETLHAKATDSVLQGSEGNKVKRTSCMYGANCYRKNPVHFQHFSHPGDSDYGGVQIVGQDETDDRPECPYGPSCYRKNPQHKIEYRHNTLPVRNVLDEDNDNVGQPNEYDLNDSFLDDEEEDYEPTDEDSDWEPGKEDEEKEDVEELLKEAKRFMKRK
UniProt O00192: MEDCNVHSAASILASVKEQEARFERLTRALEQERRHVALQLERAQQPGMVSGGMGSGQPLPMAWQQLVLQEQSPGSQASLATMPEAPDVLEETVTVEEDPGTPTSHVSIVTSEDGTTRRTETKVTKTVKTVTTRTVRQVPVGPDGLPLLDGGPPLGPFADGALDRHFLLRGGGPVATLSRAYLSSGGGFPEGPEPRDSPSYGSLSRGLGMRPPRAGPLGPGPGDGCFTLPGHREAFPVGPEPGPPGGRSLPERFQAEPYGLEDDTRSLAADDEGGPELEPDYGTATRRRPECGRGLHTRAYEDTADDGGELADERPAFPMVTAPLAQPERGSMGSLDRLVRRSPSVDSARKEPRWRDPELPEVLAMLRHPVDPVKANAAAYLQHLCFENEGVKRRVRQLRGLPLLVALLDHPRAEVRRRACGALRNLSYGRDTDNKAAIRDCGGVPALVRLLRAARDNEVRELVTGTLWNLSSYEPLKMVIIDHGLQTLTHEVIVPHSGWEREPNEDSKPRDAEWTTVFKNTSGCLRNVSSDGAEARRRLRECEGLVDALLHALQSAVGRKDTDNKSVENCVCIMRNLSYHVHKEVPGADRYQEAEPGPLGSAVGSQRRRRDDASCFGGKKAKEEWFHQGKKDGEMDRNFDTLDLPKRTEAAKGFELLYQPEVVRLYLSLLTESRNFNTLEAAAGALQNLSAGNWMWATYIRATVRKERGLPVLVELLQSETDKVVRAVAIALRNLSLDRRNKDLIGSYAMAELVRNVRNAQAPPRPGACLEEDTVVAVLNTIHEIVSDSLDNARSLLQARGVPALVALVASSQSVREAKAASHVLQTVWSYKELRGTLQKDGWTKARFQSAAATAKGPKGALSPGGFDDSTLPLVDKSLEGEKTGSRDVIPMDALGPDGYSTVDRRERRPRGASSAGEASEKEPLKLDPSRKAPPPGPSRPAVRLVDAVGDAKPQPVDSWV
UniProt Q9P2N2: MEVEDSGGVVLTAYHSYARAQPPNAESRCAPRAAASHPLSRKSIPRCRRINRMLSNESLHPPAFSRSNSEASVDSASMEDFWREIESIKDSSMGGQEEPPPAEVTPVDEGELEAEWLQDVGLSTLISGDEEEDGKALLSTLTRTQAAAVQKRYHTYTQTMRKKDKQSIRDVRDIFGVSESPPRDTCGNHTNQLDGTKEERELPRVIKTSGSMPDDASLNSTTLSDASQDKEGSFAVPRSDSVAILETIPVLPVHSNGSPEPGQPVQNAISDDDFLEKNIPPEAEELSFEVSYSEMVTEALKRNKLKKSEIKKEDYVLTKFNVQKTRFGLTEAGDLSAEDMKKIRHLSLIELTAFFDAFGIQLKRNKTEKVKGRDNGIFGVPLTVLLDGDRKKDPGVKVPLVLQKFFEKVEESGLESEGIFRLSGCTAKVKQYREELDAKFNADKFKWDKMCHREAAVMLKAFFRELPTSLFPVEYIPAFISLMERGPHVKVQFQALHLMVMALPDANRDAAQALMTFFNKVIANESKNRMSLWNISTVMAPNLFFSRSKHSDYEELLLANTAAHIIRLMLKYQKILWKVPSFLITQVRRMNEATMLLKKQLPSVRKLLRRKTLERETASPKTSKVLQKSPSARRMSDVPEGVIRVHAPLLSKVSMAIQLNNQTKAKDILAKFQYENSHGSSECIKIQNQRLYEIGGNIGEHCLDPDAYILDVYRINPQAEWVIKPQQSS
UniProt P53367: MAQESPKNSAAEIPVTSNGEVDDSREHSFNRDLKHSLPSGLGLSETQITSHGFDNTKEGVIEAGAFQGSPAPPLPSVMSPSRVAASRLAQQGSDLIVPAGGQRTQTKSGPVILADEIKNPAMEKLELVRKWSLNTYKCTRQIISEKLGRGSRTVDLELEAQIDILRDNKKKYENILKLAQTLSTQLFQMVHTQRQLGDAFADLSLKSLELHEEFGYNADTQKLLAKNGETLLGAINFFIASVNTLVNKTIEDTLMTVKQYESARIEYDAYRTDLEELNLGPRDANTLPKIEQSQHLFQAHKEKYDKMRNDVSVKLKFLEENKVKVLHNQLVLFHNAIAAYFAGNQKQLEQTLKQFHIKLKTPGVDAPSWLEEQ
UniProt Q9UH17: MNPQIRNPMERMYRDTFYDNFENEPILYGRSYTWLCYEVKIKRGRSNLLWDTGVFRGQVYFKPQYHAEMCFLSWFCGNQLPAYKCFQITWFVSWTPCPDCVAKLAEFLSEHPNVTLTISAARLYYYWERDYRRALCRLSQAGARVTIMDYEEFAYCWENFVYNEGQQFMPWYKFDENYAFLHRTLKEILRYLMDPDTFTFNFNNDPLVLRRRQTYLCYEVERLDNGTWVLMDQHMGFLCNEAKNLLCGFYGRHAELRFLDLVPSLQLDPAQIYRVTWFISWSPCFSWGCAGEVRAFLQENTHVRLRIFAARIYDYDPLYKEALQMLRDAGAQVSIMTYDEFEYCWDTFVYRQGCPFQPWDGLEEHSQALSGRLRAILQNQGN
UniProt Q8WWN8: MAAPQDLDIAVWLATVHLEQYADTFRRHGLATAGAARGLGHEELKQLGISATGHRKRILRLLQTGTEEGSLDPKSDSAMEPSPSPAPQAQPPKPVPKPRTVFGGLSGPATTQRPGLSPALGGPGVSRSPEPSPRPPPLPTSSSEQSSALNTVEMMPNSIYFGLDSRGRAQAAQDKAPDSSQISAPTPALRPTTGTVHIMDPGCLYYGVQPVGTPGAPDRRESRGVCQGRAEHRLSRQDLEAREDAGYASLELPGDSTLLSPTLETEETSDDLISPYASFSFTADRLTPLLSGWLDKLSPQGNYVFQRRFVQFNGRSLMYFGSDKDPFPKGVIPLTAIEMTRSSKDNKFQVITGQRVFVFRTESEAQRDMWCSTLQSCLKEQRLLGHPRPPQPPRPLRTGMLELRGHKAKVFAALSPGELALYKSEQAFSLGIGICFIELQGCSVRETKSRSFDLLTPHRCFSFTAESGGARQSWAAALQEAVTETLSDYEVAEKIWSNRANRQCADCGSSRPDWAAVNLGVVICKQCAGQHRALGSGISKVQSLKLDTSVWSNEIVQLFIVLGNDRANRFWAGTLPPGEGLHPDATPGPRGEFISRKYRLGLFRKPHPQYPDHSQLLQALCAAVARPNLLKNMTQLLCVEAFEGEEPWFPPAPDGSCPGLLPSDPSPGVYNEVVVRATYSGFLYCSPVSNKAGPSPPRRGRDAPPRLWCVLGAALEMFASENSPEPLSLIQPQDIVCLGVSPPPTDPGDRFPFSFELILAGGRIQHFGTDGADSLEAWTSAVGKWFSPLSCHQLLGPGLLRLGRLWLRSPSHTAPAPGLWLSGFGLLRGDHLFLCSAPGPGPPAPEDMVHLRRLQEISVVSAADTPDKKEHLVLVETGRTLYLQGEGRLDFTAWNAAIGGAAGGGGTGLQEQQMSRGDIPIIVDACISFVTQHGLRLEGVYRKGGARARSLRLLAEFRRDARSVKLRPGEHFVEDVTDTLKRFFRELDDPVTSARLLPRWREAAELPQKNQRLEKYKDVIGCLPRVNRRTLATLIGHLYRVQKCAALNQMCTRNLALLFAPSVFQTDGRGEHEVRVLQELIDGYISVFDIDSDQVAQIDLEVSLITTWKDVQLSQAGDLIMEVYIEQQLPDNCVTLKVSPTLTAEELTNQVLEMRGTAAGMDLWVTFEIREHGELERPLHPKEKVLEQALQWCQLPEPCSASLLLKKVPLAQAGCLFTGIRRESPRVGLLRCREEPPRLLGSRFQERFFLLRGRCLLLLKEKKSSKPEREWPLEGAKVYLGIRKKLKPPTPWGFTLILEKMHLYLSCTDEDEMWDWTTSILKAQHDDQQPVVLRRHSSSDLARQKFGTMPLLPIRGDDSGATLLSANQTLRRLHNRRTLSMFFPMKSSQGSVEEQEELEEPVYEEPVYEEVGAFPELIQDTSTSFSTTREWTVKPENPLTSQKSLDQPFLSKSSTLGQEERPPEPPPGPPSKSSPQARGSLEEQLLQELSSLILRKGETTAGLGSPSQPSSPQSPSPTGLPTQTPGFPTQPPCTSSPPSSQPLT
UniProt Q9H6L4: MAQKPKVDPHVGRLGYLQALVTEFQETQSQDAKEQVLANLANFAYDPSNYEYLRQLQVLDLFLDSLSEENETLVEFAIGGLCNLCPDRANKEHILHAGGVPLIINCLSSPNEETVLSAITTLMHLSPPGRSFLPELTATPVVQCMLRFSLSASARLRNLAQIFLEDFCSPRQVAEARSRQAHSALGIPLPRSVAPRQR
UniProt Q8N2F6: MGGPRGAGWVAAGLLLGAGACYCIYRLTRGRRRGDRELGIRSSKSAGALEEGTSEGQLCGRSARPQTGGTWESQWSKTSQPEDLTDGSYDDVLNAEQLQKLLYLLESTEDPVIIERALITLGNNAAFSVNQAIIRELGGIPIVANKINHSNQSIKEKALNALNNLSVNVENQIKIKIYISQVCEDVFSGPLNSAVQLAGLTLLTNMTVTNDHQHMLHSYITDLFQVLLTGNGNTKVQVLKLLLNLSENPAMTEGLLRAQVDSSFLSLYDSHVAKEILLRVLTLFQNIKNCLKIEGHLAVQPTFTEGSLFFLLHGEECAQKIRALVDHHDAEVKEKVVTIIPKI

pictilisib = compound: CS(=O)(=O)N1CCN(Cc2cc3nc(-c4cccc5[nH]ncc45)nc(N4CCOCC4)c3s2)CC1 [pictilisib]
Outline: as §1

crizotinib = compound: C[C@@H](Oc1cc(-c2cnn(C3CCNCC3)c2)cnc1N)c1c(Cl)ccc(F)c1Cl [crizotinib]
Outline: as §1

[1] = compound: C[C@H](C1=CC=C(C=C1)C(=O)NC2=C3C=CNC3=NC=C2)N
Outline: as §1

gandotinib = compound: Cc1cc(Nc2cc(CN3CCOCC3)c3nc(C)c(Cc4ccc(Cl)cc4F)n3n2)n[nH]1 [gandotinib]
Outline: as §1

tozasertib = compound: Cc1cc(Nc2cc(N3CCN(C)CC3)nc(Sc3ccc(NC(=O)C4CC4)cc3)n2)n[nH]1 [tozasertib]
Outline: as §1

doramapimod = compound: Cc1ccc(-n2nc(C(C)(C)C)cc2NC(=O)Nc2ccc(OCCN3CCOCC3)c3ccccc23)cc1 [doramapimod]
Outline: as §1

bafetinib = compound: Cc1ccc(NC(=O)c2ccc(CN3CC[C@H](N(C)C)C3)c(C(F)(F)F)c2)cc1Nc1nccc(-c2cncnc2)n1 [bafetinib]
Outline: as §1

[2] = compound: Cc1cccc(CC(=O)N2CCc3c2ccc(-c2cn(C)c4ncnc(N)c24)c3F)n1
Outline: as §1

nilotinib = compound: Cc1cn(-c2cc(NC(=O)c3ccc(C)c(Nc4nccc(-c5cccnc5)n4)c3)cc(C(F)(F)F)c2)cn1 [nilotinib]
Outline: as §1

[3] = compound: Cc1nc(Nc2n[nH]c3c2CN(C(=O)N[C@H](CN(C)C)c2ccccc2)C3(C)C)c2sccc2n1
Outline: as §1

[4] = compound: Cc1ncc(-c2ccnc(Nc3ccc(S(C)(=O)=O)cc3)n2)n1C(C)C
Outline: as §1

quisinostat = compound: Cn1cc(CNCC2CCN(c3ncc(C(=O)NO)cn3)CC2)c2ccccc21 [quisinostat]
Outline: as §1

tipifarnib = compound: Cn1cncc1[C@@](N)(c1ccc(Cl)cc1)c1ccc2c(c1)c(-c1cccc(Cl)c1)cc(=O)n2C [tipifarnib]
Outline: as §1

[5] = compound: NC(=O)Nc1cc(-c2cccc(F)c2)sc1C(=O)N[C@H]1CCCNC1
Outline: as §1

[6] = compound: NC(=O)c1cnc(N[C@@H]2CCCC[C@@H]2N)nc1Nc1cccc(-n2nccn2)c1
Outline: as §1

[7] = compound: NC1(c2ccc(-c3nc4ccn5c(=O)[nH]nc5c4cc3-c3ccccc3)cc2)CCC1
Outline: as §1

duvelisib = compound: C[C@H](Nc1ncnc2nc[nH]c12)c1cc2cccc(Cl)c2c(=O)n1-c1ccccc1 [duvelisib]
Outline: as §1

dasatinib = compound: Cc1nc(Nc2ncc(C(=O)Nc3c(C)cccc3Cl)s2)cc(N2CCN(CCO)CC2)n1 [dasatinib]
Outline: as §1

[8] = compound: Cn1cc(-c2ccc3c(c2)CCN3C(=O)Cc2cccc(C(F)(F)F)c2)c2c(N)ncnc21
Outline: as §1

Measured: log2 fold change

APOBEC3F (UniProt Q8IUX4)
inactive: lapatinib -0.195 | pictilisib -0.127 | crizotinib 0.243 | [1] -0.13 | gandotinib 0.103 | tozasertib -0.037 | doramapimod 0.021 | bafetinib -0.022 | [2] -0.181 | nilotinib -0.034 | [3] -0.076 | [4] -0.083 | quisinostat -0.173 | tipifarnib 0.025 | [5] -0.069 | [6] -0.016 | [7] -0.317

AQR (UniProt O60306)
inactive: lapatinib -0.032 | pictilisib -0.056 | crizotinib -0.053 | [1] 0.015 | duvelisib 0.034 | gandotinib -0.039 | tozasertib 0.018 | doramapimod 0.014 | bafetinib -0.052 | [2] 0.007 | nilotinib -0.049 | [3] 0.015 | dasatinib -0.005 | [4] 0.031 | [8] 0.014 | quisinostat -0.062 | tipifarnib -0.018 | [5] 0.02 | [6] 0.001 | [7] -0.039

APOO (UniProt Q9BUR5)
inactive: lapatinib -0.058 | pictilisib -0.032 | crizotinib 0.028 | [1] -0.034 | duvelisib 0.002 | gandotinib -0.052 | tozasertib 0.182 | doramapimod -0.005 | bafetinib -0.03 | [2] 0.022 | nilotinib -0.028 | [3] 0.01 | dasatinib -0.005 | [4] 0.01 | [8] 0.039 | quisinostat 0.11 | tipifarnib -0.064 | [5] -0.03 | [6] 0.022 | [7] 0.05

ARL5A (UniProt Q9Y689)
inactive: lapatinib 0.06 | crizotinib -0.064 | [1] -0.147 | duvelisib 0.04 | gandotinib -0.092 | tozasertib 0.12 | doramapimod 0.003 | [2] 0.013 | nilotinib 0.235 | [3] -0.029 | dasatinib -0.109 | [4] -0.014 | [8] 0.074 | quisinostat 0.064 | tipifarnib -0.043 | [5] -0.146 | [6] 0

ARF6 (UniProt P62330)
inactive: lapatinib 0.04 | pictilisib -0.006 | crizotinib 0.056 | [1] -0.09 | duvelisib 0.012 | gandotinib 0.055 | tozasertib 0.064 | doramapimod 0.057 | bafetinib 0.004 | [2] 0.047 | nilotinib 0.001 | [3] 0.029 | dasatinib -0.007 | [4] -0.009 | [8] 0.026 | quisinostat -0.04 | tipifarnib 0.011 | [5] 0.013 | [6] 0.069 | [7] 0.035

ARMCX5 (UniProt Q6P1M9)
inactive: lapatinib -0.033 | pictilisib 0.04 | [1] -0.001 | duvelisib -0.114 | gandotinib 0.001 | tozasertib 0.032 | bafetinib -0.104 | [2] 0.078 | nilotinib 0.035 | [3] 0.009 | dasatinib -0.039 | [4] 0.037 | [8] -0.07 | tipifarnib -0.023 | [6] 0.02 | [7] -0.027

APBA3 (UniProt O96018)
inactive: lapatinib -0.021 | crizotinib -0.321 | tozasertib 0.051 | doramapimod 0.017 | quisinostat -0.172 | [5] 0.051 | [6] 0.172 | [7] -0.066

ARHGAP39 isoform 2 (UniProt Q9C0H5)
inactive: lapatinib -0.146 | crizotinib 0.136 | doramapimod -0.188 | quisinostat 0.13 | [5] -0.034 | [6] 0.094

APLF (UniProt Q8IW19)
inactive: lapatinib -0.098 | pictilisib -0.067 | crizotinib -0.009 | tozasertib 0.054 | doramapimod 0.042 | bafetinib -0.161 | quisinostat -0.069 | [5] 0.069 | [6] -0.051 | [7] 0.037

APPL2 isoform 3 (UniProt Q8NEU8)
inactive: lapatinib -0.024 | pictilisib -0.074 | crizotinib -0.02 | [1] -0.201 | duvelisib 0.02 | gandotinib -0.045 | tozasertib 0.018 | doramapimod 0.003 | bafetinib 0.192 | [2] -0.024 | dasatinib 0.028 | [8] 0.127 | quisinostat -0.056 | [5] 0.057 | [6] -0.018 | [7] -0.074

ARVCF (UniProt O00192)
inactive: lapatinib -0.304 | crizotinib -0.019 | [1] -0.086 | duvelisib 0.087 | gandotinib 0.151 | tozasertib 0.028 | doramapimod 0.048 | [2] 0.129 | nilotinib -0.022 | [3] -0.032 | dasatinib -0.014 | [4] 0.004 | [8] -0.002 | quisinostat 0.105 | tipifarnib 0.069 | [5] 0.025 | [6] 0.024 | [7] -0.154

ARL5B (UniProt Q96KC2)
inactive: lapatinib -0.207 | pictilisib 0.004 | crizotinib -0.035 | [1] -0.138 | gandotinib 0.083 | tozasertib 0.064 | doramapimod -0.004 | bafetinib -0.213 | [2] 0.084 | nilotinib -0.068 | [3] 0.051 | [4] -0.007 | quisinostat 0.14 | tipifarnib -0.056 | [5] 0.029 | [6] 0.051 | [7] -0.069

ARHGAP28 (UniProt Q9P2N2)
inactive: lapatinib 0.015 | pictilisib -0.009 | duvelisib 0.029 | bafetinib -0.003 | dasatinib -0.265 | [8] 0.013 | [6] 0.088 | [7] -0.014

ARL6IP4 isoform 2 (UniProt Q66PJ3)
inactive: lapatinib 0.087 | [1] -0.01 | gandotinib -0.106 | [2] 0.05 | [6] -0.053

ARHGAP22 isoform 2 (UniProt Q7Z5H3)
inactive: lapatinib 0.024 | crizotinib -0.064 | duvelisib 0.045 | tozasertib -0.065 | doramapimod -0.042 | dasatinib -0.007 | [8] 0.015 | quisinostat -0.053 | [5] 0.062 | [6] 0 | [7] -0.107

ARSK (UniProt Q6UWY0)
inactive: lapatinib 0.01 | [1] -0.184 | duvelisib -0.064 | gandotinib 0.021 | tozasertib -0.051 | [2] 0.068 | dasatinib -0.054 | [8] -0.041 | [6] -0.025 | [7] 0.044

ARFIP1 isoform 2 (UniProt P53367)
inactive: lapatinib -0.059 | pictilisib -0.012 | [1] -0.147 | duvelisib 0.053 | gandotinib 0.014 | tozasertib -0.015 | bafetinib 0.016 | [2] 0.029 | nilotinib -0.11 | [3] 0.089 | dasatinib -0.179 | [4] 0.017 | [8] -0.133 | tipifarnib 0.175 | [6] 0.065

APP (UniProt P05067)
inactive: pictilisib 0 | crizotinib 0.075 | [1] -0.121 | duvelisib -0.063 | gandotinib 0.033 | tozasertib -0.057 | doramapimod 0.033 | bafetinib -0.056 | [2] -0.019 | nilotinib -0.078 | [3] 0.062 | dasatinib 0.032 | [4] -0.018 | [8] 0.063 | quisinostat 0.06 | tipifarnib 0.137 | [5] 0.016 | [7] -0.051

APOBEC3B (UniProt Q9UH17)
inactive: crizotinib 0.005 | [1] -0.085 | duvelisib -0.036 | gandotinib -0.081 | tozasertib -0.13 | doramapimod -0.097 | [2] 0.052 | nilotinib 0.191 | [3] 0.056 | dasatinib 0.229 | [4] -0.293 | [8] -0.076 | quisinostat 0.046 | tipifarnib 0.162 | [5] -0.062 | [7] 0

ARAP3 (UniProt Q8WWN8)
inactive: [1] 0.158 | duvelisib -0.016 | gandotinib -0.169 | tozasertib -0.039 | [2] 0.063 | nilotinib 0.155 | [3] -0.049 | dasatinib -0.05 | [4] -0.005 | [8] 0.102 | tipifarnib 0.023 | [7] 0.027

ARMC7 (UniProt Q9H6L4)
inactive: crizotinib 0.056 | duvelisib 0.013 | doramapimod -0.077 | dasatinib -0.014 | [8] 0.097 | quisinostat 0.045 | [5] -0.007

ARRDC3 (UniProt Q96B67)
inactive: [7] -0.314

ARL6IP4 isoform 7 (UniProt Q66PJ3)
inactive: pictilisib 0.109 | bafetinib -0.122

ARMC10 isoform 2 (UniProt Q8N2F6)
inactive: duvelisib -0.155 | tozasertib -0.083 | dasatinib 0 | [8] 0.102

Pulled one by one from the entries so far, two records:
ARMCX5 (UniProt Q6P1M9)
inactive: lapatinib -0.033 | pictilisib 0.04 | [1] -0.001 | duvelisib -0.114 | gandotinib 0.001 | tozasertib 0.032 | bafetinib -0.104 | [2] 0.078 | nilotinib 0.035 | [3] 0.009 | dasatinib -0.039 | [4] 0.037 | [8] -0.07 | tipifarnib -0.023 | [6] 0.02 | [7] -0.027

ARL5B (UniProt Q96KC2)
inactive: lapatinib -0.207 | pictilisib 0.004 | crizotinib -0.035 | [1] -0.138 | gandotinib 0.083 | tozasertib 0.064 | doramapimod -0.004 | bafetinib -0.213 | [2] 0.084 | nilotinib -0.068 | [3] 0.051 | [4] -0.007 | quisinostat 0.14 | tipifarnib -0.056 | [5] 0.029 | [6] 0.051 | [7] -0.069

Next part:

API5 isoform 1 (UniProt Q9BZZ5)
inactive: crizotinib 0.073 | [1] 0.201 | gandotinib 0.079 | doramapimod 0.065 | [2] 0.025 | nilotinib -0.138 | [3] 0.147 | [4] 0.019 | quisinostat -0.044 | tipifarnib -0.093 | [5] 0.032

Reference: the supplement of paper PMC10849652
